According to the supplement of paper PMC4635364:
Where a name gives a salt, the structure may show the parent alone. The list shows a part of the results. Single values are uncertain here, since repeats match poorly.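 Human fetal ventral-midbrain neural progenitor line ReNCell VM, differentiated without mitogens. Images stained for doublecortin (early neurons) or tyrosine hydroxylase (dopaminergic neurons) were scored by blinded raters against untreated wells (0 = no change). Repeats and both raters were averaged, and compounds averaging 2 or higher were picked as hits for retesting.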

Test system: ReNCell VM
Experiment: neuronal differentiation score (DCX+ cell fraction vs untreated, manual image score) (score (-3 to 3)); higher = more neuronal differentiation
Conditions: library: LOPAC; 2 uM; 2 weeks

| SMILES | neuronal differentiation score |
| --- | --- |
| CO/N=C(\C(=O)N[C@@H]1C(=O)N2C(C(=O)O)=C(CSc3nc(=O)c(O)nn3C)CS[C@H]12)c1csc(N)n1 [Ceftriaxone sodium] | inactive: 0 |
| C[N+]1(C)CCC(OC(=O)C(c2ccccc2)c2ccccc2)CC1 [4-DAMP methiodide] | inactive: 0 |
| O=c1[nH]c2ccccc2c2ccccc12 [6(5H)-Phenanthridinone] | inactive: 0 |
| Cc1nc(N=Nc2ccc(C(=O)O)cc2)c(COP(=O)(O)O)c(C=O)c1O | inactive: 1 |
| c1ccc2c(c1)CC(N1CCN(c3cccc4c3OCCO4)CC1)C2 | inactive: 0 |
| CNc1ncnc2c1ncn2[C@H]1C[C@H](OP(=O)(O)O)[C@@H](COP(=O)(O)O)O1 | inactive: 0 |

Same assay, conditions: library: Prestwick; 2 uM; 2 weeks

| SMILES | neuronal differentiation score |
| --- | --- |
| CN(C)CCOC(=O)COc1ccc(Cl)cc1 [Meclofenoxate hydrochloride] | inactive: 0 |
| CC(=O)c1ccc2c(c1)N(CCCN(C)C)c1ccccc1S2 [Acetopromazine maleate salt] | inactive: 0 |
| O=C(Nc1cccc2c(=O)cc(-c3nnn[nH]3)oc12)c1ccc(OCCCCc2ccccc2)cc1 [Pranlukast] | inactive: 0 |
| CC(=O)[C@H]1CC[C@H]2[C@@H]3C[C@H](C)C4=CC(=O)CC[C@]4(C)[C@H]3[C@@H](O)C[C@]12C [Medrysone] | inactive: 0 |
| C=CC[N@@+]12CC[C@@]34c5ccccc5N5/C=C6/[C@H]7C[C@H]8[C@@]9(CC[N@@+]8(CC=C)C/C7=C/CO)c7ccccc7N(/C=C(/[C@@H](C[C@@H]31)/C(=C\CO)C2)[C@H]54)[C@@H]69 [Alcuronium chloride] | inactive: 0 |
| CCN(CC)CC#CCOC(=O)C(O)(c1ccccc1)C1CCCCC1 (stereo not given) [Oxybutynin chloride] | inactive: 0 |
| O=C(NCCN1CCOCC1)c1ccc(Cl)cc1 [Moclobemide] | inactive: 0 |

Sorted by molar mass (smallest number first): three of the compounds above.

| SMILES | neuronal differentiation score |
| --- | --- |
| CN(C)CCOC(=O)COc1ccc(Cl)cc1 [Meclofenoxate hydrochloride] | inactive: 0 |
| O=C(Nc1cccc2c(=O)cc(-c3nnn[nH]3)oc12)c1ccc(OCCCCc2ccccc2)cc1 [Pranlukast] | inactive: 0 |
| C=CC[N@@+]12CC[C@@]34c5ccccc5N5/C=C6/[C@H]7C[C@H]8[C@@]9(CC[N@@+]8(CC=C)C/C7=C/CO)c7ccccc7N(/C=C(/[C@@H](C[C@@H]31)/C(=C\CO)C2)[C@H]54)[C@@H]69 [Alcuronium chloride] | inactive: 0 |

Same assay, conditions: library: Spectrum; 2 uM; 2 weeks

| SMILES | neuronal differentiation score |
| --- | --- |
| O=c1ccc2ccccc2o1 | inactive: 0 |
| CC1(C)CC[C@]2(C(=O)O)CC[C@]3(C)C(=CC[C@@H]4[C@@]5(C)CC[C@H](O)[C@@](C)(CO)[C@@H]5CC[C@]43C)[C@@H]2C1 | inactive: 0 |
| NCCCC[C@H](N[C@@H](CCc1ccccc1)C(=O)O)C(=O)N1CCC[C@H]1C(=O)O | inactive: 0 |
| O=C(O)CCC(=O)c1ccc(-c2ccccc2)cc1 | inactive: 0 |
| CC(=O)O[C@H]1CC[C@@]2(C)[C@@H](CC[C@@H]3[C@@H]2CC(=O)[C@]2(C)[C@@H]4[C@H](C[C@@H]32)O[C@]2(CC[C@@H](C)CO2)[C@H]4C)C1 | inactive: 0 |
| C#C[C@]1(O)CC[C@H]2[C@@H]3CCC4=C(CCC(=O)C4)[C@H]3CC[C@@]21C | inactive: 0 |
| CC[N+](C)(CC)CCOC(=O)C(O)(c1ccccc1)C1CCCCC1 (stereo not given) | inactive: 0 |
| C=CCSCC(N)C(=O)O (stereo not given) | inactive: 0 |
| CO/N=C(\C(=O)N[C@@H]1C(=O)N2C(C(=O)OCOC(=O)C(C)(C)C)=C(/C=C\c3scnc3C)CS[C@H]12)c1csc(N)n1 | inactive: 0 |
| CC1(C)S[C@@H]2[C@H](NC(=O)COc3ccccc3)C(=O)N2[C@H]1C(=O)O | inactive: 0 |
| O=c1cc(-c2ccccc2)oc2cccc(O)c12 | inactive: -1 |
| CC(=O)/N=c1/sc(S(N)(=O)=O)nn1C | inactive: 0 |
| COc1ccc(-c2coc3cc(O)ccc3c2=O)c(O)c1O | inactive: 0 |
| CCS(=O)(=O)CCn1c([N+](=O)[O-])cnc1C | inactive: 0 |
| CN(C)[C@@H]1C(O)=C(C(=O)NCN2CCCC2)C(=O)[C@@]2(O)C(O)=C3C(=O)c4c(O)cccc4[C@@](C)(O)[C@H]3C[C@@H]12 | inactive: 0 |
| NC1CCN(c2c(F)cc3c(=O)c(C(=O)O)cn(C4CC4)c3c2Cl)C1 (stereo not given) | inactive: 0 |
| O=C(O)/C=C/C=C/c1ccccc1 | inactive: 0 |
| COC(=O)c1c(OC)cc2c(c1C)Oc1c(Cl)c(O)c(Cl)c(C)c1C(=O)O2 | inactive: 0 |
| CN(C)[C@@H]1C(O)=C(C(N)=O)C(=O)[C@@]2(O)C(O)=C3C(=O)c4c(O)ccc(Cl)c4[C@@H](O)[C@H]3C[C@@H]12 | inactive: 0 |

Same assay, conditions: library: Tocriscreen; 2 uM; 2 weeks

| SMILES | neuronal differentiation score |
| --- | --- |
| O=C(/C=C/c1c(C(=O)O)[nH]c2cc(Cl)cc(Cl)c12)Nc1ccccc1 [Gavestinel] | inactive: 0 |
| C/N=C(/NC#N)NCCSCc1csc(NC(=N)N)n1 [Tiotidine] | inactive: 0 |
| CCOCC(O)COc1ccc(NC(=O)CC[S+](C)C)cc1 (stereo not given) [Suplatast tosylate] | inactive: 0 |
| CCOC(=O)c1c(C)[nH]c2ccc3c(c12)CN1CCc2cc(OC)ccc2C1O3 (stereo not given) | inactive: 0 |
| CCN(CC)CCOc1ccc(Cc2ccccc2)cc1 [DPPE fumarate] | inactive: 0 |
| Cc1c[nH]c(=O)n(CCCN2CCN(c3ccccc3OCC(F)(F)F)CC2)c1=O | inactive: 0 |
| O=C(c1ccc(F)cc1)C1CCN(CCCCc2ccccc2)CC1 [4-(4-Fluorobenzoyl)-1-(4-phenylbutyl)-piperidine oxalate] | active: 3 |
| O=c1cc(-c2cccc3c2Sc2ccccc2S3)oc(N2CCOCC2)c1 | inactive: 0 |
